Test in all cases: affinity purification with mass spectrometry; SILAC-IP: cells with and without the tagged bait mixed, solubilized in 20 mM Tris-HCl pH 7.4, 0.1 mM EDTA, 100 mM NaCl, 10% glycerol, 1.5% digitonin; anti-HA or anti-Myc affinity beads, 2 h at 4°C; eluates analysed by quantitative LC-MS; three biological replicates
In assay [1] the target is Myc-tagged TAC60 (T. brucei) (UniProt Q57WR0).
In assay [2] the target is in situ HA-tagged TAC42 (T. brucei) (UniProt Q57YB6).
Assay [3] concerns the target in situ HA-tagged TAC40 (T. brucei) (UniProt Q581S0).

Chains of the proteins cited; added tags and fusions are not shown. Lines headed by an entry give the natural chain unless they say otherwise; changes in a name come on top.
UniProt Q57WR0: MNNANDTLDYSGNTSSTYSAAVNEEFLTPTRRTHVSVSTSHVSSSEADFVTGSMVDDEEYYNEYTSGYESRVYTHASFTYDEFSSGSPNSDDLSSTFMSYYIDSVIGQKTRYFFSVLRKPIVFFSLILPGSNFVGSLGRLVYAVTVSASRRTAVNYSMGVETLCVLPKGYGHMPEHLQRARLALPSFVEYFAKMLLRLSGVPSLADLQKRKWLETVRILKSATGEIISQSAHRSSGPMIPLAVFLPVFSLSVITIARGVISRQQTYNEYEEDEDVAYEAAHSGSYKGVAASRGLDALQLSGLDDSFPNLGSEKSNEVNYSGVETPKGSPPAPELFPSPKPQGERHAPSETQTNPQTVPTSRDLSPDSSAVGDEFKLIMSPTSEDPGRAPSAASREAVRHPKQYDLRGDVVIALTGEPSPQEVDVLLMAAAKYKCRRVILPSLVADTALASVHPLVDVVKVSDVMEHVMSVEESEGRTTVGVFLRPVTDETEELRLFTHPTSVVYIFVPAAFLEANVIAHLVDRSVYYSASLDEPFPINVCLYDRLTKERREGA
UniProt Q57YB6: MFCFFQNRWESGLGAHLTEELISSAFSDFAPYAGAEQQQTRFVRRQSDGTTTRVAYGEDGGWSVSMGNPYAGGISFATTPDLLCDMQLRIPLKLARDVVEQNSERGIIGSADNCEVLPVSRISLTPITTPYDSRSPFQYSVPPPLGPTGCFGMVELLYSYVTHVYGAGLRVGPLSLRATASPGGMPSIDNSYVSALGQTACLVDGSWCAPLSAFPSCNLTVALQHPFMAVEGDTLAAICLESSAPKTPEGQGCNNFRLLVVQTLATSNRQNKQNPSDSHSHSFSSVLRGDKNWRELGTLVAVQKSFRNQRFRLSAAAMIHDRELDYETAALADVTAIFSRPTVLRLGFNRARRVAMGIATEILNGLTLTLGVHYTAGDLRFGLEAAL
UniProt Q581S0: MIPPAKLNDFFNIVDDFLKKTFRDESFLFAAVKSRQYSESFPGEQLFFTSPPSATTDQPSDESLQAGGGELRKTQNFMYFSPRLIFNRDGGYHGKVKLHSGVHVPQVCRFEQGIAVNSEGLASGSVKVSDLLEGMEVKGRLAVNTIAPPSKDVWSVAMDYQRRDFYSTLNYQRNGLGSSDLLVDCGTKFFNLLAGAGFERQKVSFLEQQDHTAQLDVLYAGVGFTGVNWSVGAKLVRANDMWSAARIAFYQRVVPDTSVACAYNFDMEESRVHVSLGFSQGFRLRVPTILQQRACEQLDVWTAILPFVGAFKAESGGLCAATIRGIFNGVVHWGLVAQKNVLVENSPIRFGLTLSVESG

No constants are given. Whether binding was seen depends on the method and setting. Binding seen in cells or lysates may run through a third protein. These calls come from enrichment with a bait or labelling near it, and not all partners need be listed.

Turning to TAC42 (from UniProt Q57YB6), in assay [1], the binding entry is reported as “binds”. With TAC40 (from UniProt Q581S0), the binding entry in assay [1] and in assay [2] was “binds” in each case.

On to TAC60 (from UniProt Q57WR0), for which the binding entry in assay [3] and in assay [2] was “binds” each time.

The values are drawn from publication PMC5764417.
